Assay results as given in PubChem BioAssay AID1671190 (National Center for Advancing Translational Sciences (NCATS), 2021).
Among all 580,000 compounds or so, about 6,100 (1.1%) were called active. Inconclusive means that the source gave no clear call. Such entries were picked first, then a sample of the others. Calls come from the whole dose curve; as a rule, active = well fitted inhibition curve with a large enough effect; inconclusive = small, poorly fitted or top-dose-only effect, or another doubt; inactive = no such curve, though single readings can be large or run the other way. A potency beside an inconclusive call is a rough fit, not a confirmed value.

The chains behind the UniProt entries cited, without tags or fusion partners. Where a name states a change or a piece, a line headed by the entry shows the natural chain unless it says otherwise.
UniProt P18054: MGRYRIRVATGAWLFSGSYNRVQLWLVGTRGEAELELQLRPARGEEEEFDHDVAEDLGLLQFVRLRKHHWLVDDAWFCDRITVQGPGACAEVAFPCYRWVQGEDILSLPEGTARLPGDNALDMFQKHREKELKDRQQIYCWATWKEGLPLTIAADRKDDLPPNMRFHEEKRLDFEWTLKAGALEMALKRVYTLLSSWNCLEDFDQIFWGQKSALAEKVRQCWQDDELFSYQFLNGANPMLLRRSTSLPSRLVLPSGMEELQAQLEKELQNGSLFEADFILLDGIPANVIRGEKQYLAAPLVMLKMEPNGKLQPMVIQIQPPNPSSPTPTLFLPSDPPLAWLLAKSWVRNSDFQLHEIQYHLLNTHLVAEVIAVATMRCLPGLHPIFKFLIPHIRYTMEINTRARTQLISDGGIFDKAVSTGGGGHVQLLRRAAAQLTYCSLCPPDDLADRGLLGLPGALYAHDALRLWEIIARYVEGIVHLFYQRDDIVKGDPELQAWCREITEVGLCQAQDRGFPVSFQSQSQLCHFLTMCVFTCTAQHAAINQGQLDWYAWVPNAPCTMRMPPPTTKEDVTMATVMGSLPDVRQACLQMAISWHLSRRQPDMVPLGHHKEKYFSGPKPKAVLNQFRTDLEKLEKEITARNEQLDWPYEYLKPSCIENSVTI

What follows are molecules tested against Polyunsaturated fatty acid lipoxygenase ALOX12 (Homo sapiens) (UniProt P18054) (assay: Primary qHTS assay for inhibitors of human arachidonate 12S-lipoxygenase (ALOX12): Round 2). Settings: purified 12hLO, xylenol orange hydroperoxide absorbance; activity change, negative = inhibition: at 108 µM (top of the series) unless noted.
Outline: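 Hydroperoxide product was detected by ferrous iron/xylenol orange as the 573 to 405 nm absorbance ratio. Arachidonic acid at 40 uM (final) was turned over for 30 min at room temperature by 150 nM human 12hLO, pH 7.0 Hepes buffer, after 15 min compound preincubation.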
% is set by controls: 0 for no effect and ±100 for the full control effect; potency is the fitted concentration of half-maximal effect.

| Compound | Potency | activity change, negative = inhibition |
| --- | --- | --- |
| CC12CCC(C(=O)Nc3cccc(Cl)c3Cl)([C@H](Br)C1=O)C2(C)C (stereo partly drawn) | inconclusive: 141 µM [inhibitor, partial curve, poor fit] | – |
| O=C1C2C3CCCC3=C3CCCC3C2C(=O)N1c1ccc(F)cc1 (stereo not drawn) | inconclusive: 6.31 µM [inhibitor, partial curve, poor fit] | – |
| CC(=NCc1ccco1)c1c(O)n(C2CCCCC2)c(=O)[nH]c1=O | inconclusive: 0.355 µM [inhibitor, full curve, poor fit] | – |
| CCS(=O)(=O)NCCC(c1ccccc1)c1ccccc1 | inactive | – |
| N#Cc1cccc(S(=O)(=O)Nc2cccn3ncnc23)c1 | inconclusive: 3.98 µM [inhibitor, single point] | – |
| Cc1cc(Cl)ccc1NS(=O)(=O)c1ccc2c(c1)CC(C)N2C(=O)C1CCC1 (stereo not drawn) | – | inconclusive: -49% [inhibitor] |
| S=C(NCc1cccnc1)Nc1ccc(Oc2ccccc2)cc1 | inconclusive: 56.2 µM [inhibitor, partial curve, poor fit] | – |
| CCCn1ccnc1CN1CCCn2nc(-c3nc4ccccc4n3C)cc2C1 | inactive | – |
| COC(=O)C1CCN(C(c2ccccc2)c2sc3nc(-c4ccco4)nn3c2O)CC1 (stereo not drawn) | inconclusive: 10 µM [inhibitor, partial curve, poor fit] | – |
| O=c1[nH]c(CSc2nnc(Cc3ccccc3)o2)nc2ccccc12 | inactive | – |
| Cc1nnc2c3ccccc3c(-c3cccs3)nn12 | inactive | – |
| COc1ccc(C#Cc2ccc(C3=CC(=O)CC(C)(C)C3=O)cc2)cc1 | inconclusive: 39.8 µM [inhibitor, single point] | – |
| COc1cc(C(=O)NCCNc2nc3ccc(C)cc3cc2C#N)cc(OC)c1OC | inconclusive: 2.51 µM [inhibitor, full curve, poor fit] | – |
| COc1cccc(Nc2nc(-c3ccc4c(c3)OCCO4)cs2)c1 | inconclusive: 35.5 µM [inhibitor, partial curve, poor fit] | – |
| CCN1CCN(CCOc2ccc3c(=O)c(-c4ccc(Br)cc4)coc3c2)CC1 | inconclusive: 39.8 µM [inhibitor, partial curve] | – |
| O=C(COc1ccccc1)Nc1cc(S(=O)(=O)N2CCOCC2)ccc1N1CCCC1 | inactive | – |
| Fc1ccc(NCc2c(F)cccc2Cl)cc1Cl | inconclusive: 20 µM [inhibitor, partial curve] | – |
| CCCCC(CC)CNC(=O)CCC(=O)NC1CCCCCCCCCCC1 (stereo not drawn) | inactive | – |
| O=C1c2cccc3c(Nc4ccccc4Cl)c([N+](=O)[O-])cc(c23)C(=O)N1CCO | inconclusive: 100 µM [inhibitor, single point] | – |
| CNC(=S)NNC(=O)c1oc2nc(-c3ccccc3)cc(-c3ccco3)c2c1N | inconclusive: 31.6 µM [inhibitor, single point] | – |
| O=C(Cn1nc(C(=O)O)c2ccccc2c1=O)Nc1cc(S(=O)(=O)N2CCOCC2)ccc1Cl | inconclusive: 44.7 µM [inhibitor, partial curve, poor fit] | – |
| COc1ccccc1C(=O)N1CCc2nc(C3CC3)nc(-c3ccc(Cl)cc3)c2C1 | active: 44.7 µM | – |
| Cc1[nH]c2ccccc2c1C(=O)COC(=O)C1CCC1 | inconclusive: 100 µM [inhibitor, single point] | – |

3 compounds already listed, ordered by molar mass, largest number first.

| Compound | Potency | activity change, negative = inhibition |
| --- | --- | --- |
| O=C(Cn1nc(C(=O)O)c2ccccc2c1=O)Nc1cc(S(=O)(=O)N2CCOCC2)ccc1Cl | inconclusive: 44.7 µM [inhibitor, partial curve, poor fit] | – |
| O=c1[nH]c(CSc2nnc(Cc3ccccc3)o2)nc2ccccc12 | inactive | – |
| Cc1nnc2c3ccccc3c(-c3cccs3)nn12 | inactive | – |

As a working copy, part of the list above.

| Compound | Potency | activity change, negative = inhibition |
| --- | --- | --- |
| O=C(Cn1nc(C(=O)O)c2ccccc2c1=O)Nc1cc(S(=O)(=O)N2CCOCC2)ccc1Cl | inconclusive: 44.7 µM [inhibitor, partial curve, poor fit] | – |
| COc1ccccc1C(=O)N1CCc2nc(C3CC3)nc(-c3ccc(Cl)cc3)c2C1 | active: 44.7 µM | – |

More records.

| Compound | Potency | activity change, negative = inhibition |
| --- | --- | --- |
| COc1cc2c3nnc(-c4ccc(F)cc4)c-3cn(Cc3cccc(C)c3)c2cc1OC | inconclusive: 100 µM [inhibitor, single point] | – |
| CCn1c2ccccc2c2cnc(N=CN(C)C)c(C#N)c21 | inactive | – |
| O=C1CC(c2nc(-c3cccs3)no2)CN1c1ccc(F)cc1 (stereo not drawn) | inconclusive: 89.1 µM [inhibitor, single point] | – |
| CC[C@H](C)C1NC(=O)[C@H](CC(=O)O)NC(=O)c2cc([N+](=O)[O-])cc(I)c2NCCC(C(N)=O)NC1=O (stereo partly drawn) | inconclusive: 50.1 µM [inhibitor, partial curve, poor fit] | – |
| COc1cc(C(=S)N2CCCC2)cc(OC)c1OS(=O)(=O)c1ccc(NC(C)=O)cc1 | inconclusive: 56.2 µM [inhibitor, partial curve, poor fit] | – |
| COc1ccc(CN(C)C(=O)c2ccc3oc(C)cc3c2)c2cccnc12 | inactive | – |
| Cn1nc(C(=O)OCC(=O)Nc2cc(Cl)ccc2C#N)c2ccccc2c1=O | inconclusive: 79.4 µM [inhibitor, partial curve, poor fit] | – |
| Cc1cccc(-c2nc(CS(=O)CC(=O)N3CCc4ccccc43)c(C)o2)c1 (stereo not drawn) | inconclusive: 79.4 µM [inhibitor, single point] | – |
| COC(=O)c1sc(=S)n(-c2ccccc2C)c1N | inconclusive: 44.7 µM [inhibitor, partial curve] | – |
| O=C(O)c1ccccc1SC(F)F | inconclusive: 39.8 µM [inhibitor, partial curve, poor fit] | – |
| CC(=O)N1CCc2c(sc3c2c(=O)n(CCc2ccccc2)c(=O)n3Cc2cccc(C)c2)C1 | inconclusive: 0.708 µM [inhibitor, full curve, poor fit] | – |
| COc1ccccc1N1CC(C(=O)Nc2nnc(SCC(=O)NCC3CCCO3)s2)CC1=O (stereo not drawn) | inconclusive: 44.7 µM [inhibitor, partial curve] | – |
| CC(=O)c1cccc(NC(=O)Cn2cc3c(n2)CCCC3)c1 | inconclusive: 3.98 µM [inhibitor, partial curve, poor fit] | – |
| Clc1ccc(C=NNc2ccccn2)c(Cl)c1 | inactive | – |
| Cc1ccccc1OC(=O)C(c1ccccc1)c1ccccc1 | inactive | – |
| CN(CC(=O)Nc1ccccc1Br)C(=O)CCc1ncc(-c2ccc(F)cc2)o1 | inactive | – |
| O=C(NCC1Cn2cccc2CN1Cc1ccccc1)c1cncc(Br)c1 (stereo not drawn) | inactive | – |
| O=C(N/N=C/c1c[nH]c2ccccc12)c1cc(-c2ccc(-c3ccccc3)cc2)n[nH]1 | inconclusive: 100 µM [inhibitor, partial curve, poor fit] | – |
| O=C1c2cnc(-c3ccccc3OCc3ccccc3)nc2OCCN1CC1CC1 | inconclusive: 14.1 µM [inhibitor, full curve] | – |
| CC1Cc2cc(/C(O)=C3\C(=O)C(=O)N(CCN(C)C)C3c3ccccc3F)ccc2O1 (stereo not drawn) | inconclusive: 50.1 µM [inhibitor, partial curve, poor fit] | – |
| CCn1c(-c2ccc(Cl)cc2)n[nH]c1=S | inconclusive: 39.8 µM [inhibitor, partial curve, poor fit] | – |
| C[C@@](N)(C(=O)O)c1ccc(P(=O)(O)O)cc1 | active: 12.6 µM | – |
| CCNC(=O)C1(C)CCN1CCC(=O)c1ccc(Br)cc1 (stereo not drawn) | inactive | – |

| Compound | Potency | activity change, negative = inhibition |
| --- | --- | --- |
| O=c1oc2c(O)cccc2cc1-c1nc(-c2ccc(Cl)cc2)no1 | inconclusive: 44.7 µM [inhibitor, partial curve, poor fit] | – |
| CC(=O)Nc1cccc(-c2nc3cc(C)ccc3o2)c1C | inactive | – |
| CCCCOC(=O)/C(=C\c1ccc([N+](=O)[O-])o1)NC(=O)c1ccccc1 | inconclusive: 7.94 µM [inhibitor, full curve] | – |
| CC(CNC(=O)CCCn1c(=O)c2cccn2c2cccnc21)c1ccccc1 (stereo not drawn) | inconclusive: 141 µM [inhibitor, partial curve, poor fit] | – |
| COc1ccc(NC(=O)c2cccc3c2CCN3C(=O)Nc2ccc(F)cc2)c(C)c1 | inconclusive: 7.08 µM [inhibitor, full curve, poor fit] | – |
| FC(F)(F)c1ccccc1-c1cncnc1Nc1ccccc1 | active: 25.1 µM | – |
| CCCS(=O)(=O)NC(=O)C1(C)CCCN(C(=O)c2ccccc2C(F)(F)F)C1 (stereo not drawn) | inconclusive: 35.5 µM [inhibitor, partial curve, poor fit] | – |
| CCN1CCC(NC(=O)Cc2cc(Cl)c3c(c2)OCCCO3)CC1 | inconclusive: 50.1 µM [inhibitor, partial curve, poor fit] | – |
| COc1c(-c2ccc(O)c(O)c2)oc2cc(O)cc(O)c2c1=O | active: 7.08 µM | – |
| COc1ccccc1N1CCN(C(=O)COc2ccc(Cl)cc2Br)CC1 | inconclusive: 100 µM [inhibitor, single point] | – |
| Cc1ccc(/C=C2/SC(=S)N(CCC(=O)N3CCN(C)CC3)C2=O)cc1 | inactive | – |
| O=C(Nc1ccc(Cl)c([N+](=O)[O-])c1)ONC1=NCCCCC1 | inactive | – |
| O=C(COc1cccc2ccccc12)N1CCN(c2ccccc2)CC1 | inactive | – |
| CC1(C)CC(=O)CC2(C1)NCC(c1ccccc1)c1c2[nH]c2ccccc12 (stereo not drawn) | inactive | – |
| CCc1nc(Nc2cc(OC)ccc2OC)c2oc3ccccc3c2n1 | inconclusive: 35.5 µM [inhibitor, partial curve, poor fit] | – |
| O=C1Nc2ccccc2CCC1n1nc(-c2ccccc2)ccc1=O (stereo not drawn) | inconclusive: 44.7 µM [inhibitor, single point] | – |
| CC(CNC(=O)c1cc2cc(F)ccc2[nH]1)c1ccccc1 (stereo not drawn) | inconclusive: 35.5 µM [inhibitor, partial curve, poor fit] | – |
| CCOC(=O)C1=C(C)N(c2ccccc2)C(=O)NC1c1cccc([N+](=O)[O-])c1 (stereo not drawn) | inconclusive: 5.62 µM [inhibitor, full curve, poor fit] | – |
| CC(C)(C)OC(=O)COc1cc(O)c2c(=O)cc(-c3ccccc3)oc2c1 | inactive | – |
| Cc1ccc(Cl)cc1N1CCN(C(=O)CN(c2ccccc2)S(=O)(=O)N(C)C)CC1 | inconclusive: 44.7 µM [inhibitor, partial curve, poor fit] | – |
| Cc1nn2c(c1-c1cccnc1N1CCOCC1)N(CC1CC1)CCC2 | active: 10 µM | – |
| C/C=C/c1cccc(-c2nc(C(=O)N3CCCCC3)cc3c2[C@H](CCO)N(C(=O)NC(C)C)C3)c1 | inconclusive: 39.8 µM [inhibitor, partial curve] | – |
